# Assay results as given in PMC7862700.
# Sequences of proteins named here, by UniProt entry; tags and fusion partners are left off. A change or cut given only in a name is not applied to a line headed by its entry.
# UniProt P32519: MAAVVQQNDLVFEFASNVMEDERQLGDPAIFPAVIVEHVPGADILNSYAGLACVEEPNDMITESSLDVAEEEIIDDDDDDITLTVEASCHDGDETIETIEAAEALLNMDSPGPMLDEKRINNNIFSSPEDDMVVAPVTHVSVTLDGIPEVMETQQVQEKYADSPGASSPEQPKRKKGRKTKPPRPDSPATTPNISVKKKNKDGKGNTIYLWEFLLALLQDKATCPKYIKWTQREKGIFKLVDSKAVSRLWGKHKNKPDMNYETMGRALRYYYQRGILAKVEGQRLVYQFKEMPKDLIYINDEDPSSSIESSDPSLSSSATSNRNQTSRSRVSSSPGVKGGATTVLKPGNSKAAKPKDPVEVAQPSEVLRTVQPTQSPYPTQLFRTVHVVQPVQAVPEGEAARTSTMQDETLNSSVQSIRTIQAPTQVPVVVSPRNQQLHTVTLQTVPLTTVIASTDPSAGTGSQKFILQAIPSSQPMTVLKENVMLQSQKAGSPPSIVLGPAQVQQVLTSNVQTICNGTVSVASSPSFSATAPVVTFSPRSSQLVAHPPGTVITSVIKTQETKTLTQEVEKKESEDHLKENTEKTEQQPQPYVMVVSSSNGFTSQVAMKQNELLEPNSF
# UniProt P50549: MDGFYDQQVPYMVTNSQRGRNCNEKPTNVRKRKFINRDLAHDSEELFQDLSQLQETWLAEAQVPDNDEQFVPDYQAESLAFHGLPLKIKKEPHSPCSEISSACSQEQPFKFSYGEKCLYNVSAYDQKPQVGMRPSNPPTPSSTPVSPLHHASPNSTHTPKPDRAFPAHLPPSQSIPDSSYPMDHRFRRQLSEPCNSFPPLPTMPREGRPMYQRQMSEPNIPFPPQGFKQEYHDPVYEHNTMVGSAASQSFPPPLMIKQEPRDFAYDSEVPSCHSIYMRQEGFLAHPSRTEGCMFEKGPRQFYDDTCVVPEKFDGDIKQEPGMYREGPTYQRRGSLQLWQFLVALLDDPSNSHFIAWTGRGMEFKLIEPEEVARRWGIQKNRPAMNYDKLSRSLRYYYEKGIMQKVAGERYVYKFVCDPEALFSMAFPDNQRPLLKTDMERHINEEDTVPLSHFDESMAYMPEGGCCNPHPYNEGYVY
# This is a selection; strong and weak results do not stand in their true shares. For part of these data: At the low end of the ranking the order means little. The list shows a part of the results. For part of these data: Construct or isoform of the protein are uncertain.
# Legend:
# Assay in all cases: DAPPL (digital affinity profiling via proximity ligation, sequencing)
# Settings in all cases: 10 mM Tris-HCl pH 7.5, 50 mM NaCl, 1 mM DTT, 4% glycerol, room temperature, 30 min; GST-TFs on glutathione beads, 16-mer random dsDNA library, 0.1% …; high values mean tight binding; double strand, one strand shown; scale: fold enrichment (6-mer frequency, TF over GST control)
# ERG = target: T1, ERG (UniProt P11308)
# T1 sequence: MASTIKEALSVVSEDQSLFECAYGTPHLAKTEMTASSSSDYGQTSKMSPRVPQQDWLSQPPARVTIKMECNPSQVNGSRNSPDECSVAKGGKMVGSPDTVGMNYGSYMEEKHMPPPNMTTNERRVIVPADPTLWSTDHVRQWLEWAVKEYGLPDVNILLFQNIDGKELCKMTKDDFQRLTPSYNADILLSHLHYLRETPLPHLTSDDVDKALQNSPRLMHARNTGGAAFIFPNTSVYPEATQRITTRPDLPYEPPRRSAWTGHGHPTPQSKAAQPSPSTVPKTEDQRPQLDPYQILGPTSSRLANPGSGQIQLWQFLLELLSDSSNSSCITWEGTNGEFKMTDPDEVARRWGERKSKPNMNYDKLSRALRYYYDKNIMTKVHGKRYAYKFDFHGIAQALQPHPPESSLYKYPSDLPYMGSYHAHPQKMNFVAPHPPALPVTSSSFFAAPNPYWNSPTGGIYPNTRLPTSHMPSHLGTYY
# ELF1 = ELF1 (UniProt P32519)
# ELK4 = target: T2, ELK4 (UniProt P28324-2)
# T2 sequence: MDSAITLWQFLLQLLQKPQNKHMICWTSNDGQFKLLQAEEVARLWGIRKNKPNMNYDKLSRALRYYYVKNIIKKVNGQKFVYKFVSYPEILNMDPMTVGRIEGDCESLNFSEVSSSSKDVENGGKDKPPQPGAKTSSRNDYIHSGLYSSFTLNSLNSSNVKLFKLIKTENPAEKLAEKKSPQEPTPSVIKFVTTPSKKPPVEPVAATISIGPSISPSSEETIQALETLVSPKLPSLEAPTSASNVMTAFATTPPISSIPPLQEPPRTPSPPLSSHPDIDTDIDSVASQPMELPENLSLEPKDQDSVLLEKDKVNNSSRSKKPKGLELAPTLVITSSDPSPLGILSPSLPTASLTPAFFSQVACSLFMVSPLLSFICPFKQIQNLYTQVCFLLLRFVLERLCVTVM
# ETV4 = target: T3, ETV4 (UniProt P43268)
# T3 sequence: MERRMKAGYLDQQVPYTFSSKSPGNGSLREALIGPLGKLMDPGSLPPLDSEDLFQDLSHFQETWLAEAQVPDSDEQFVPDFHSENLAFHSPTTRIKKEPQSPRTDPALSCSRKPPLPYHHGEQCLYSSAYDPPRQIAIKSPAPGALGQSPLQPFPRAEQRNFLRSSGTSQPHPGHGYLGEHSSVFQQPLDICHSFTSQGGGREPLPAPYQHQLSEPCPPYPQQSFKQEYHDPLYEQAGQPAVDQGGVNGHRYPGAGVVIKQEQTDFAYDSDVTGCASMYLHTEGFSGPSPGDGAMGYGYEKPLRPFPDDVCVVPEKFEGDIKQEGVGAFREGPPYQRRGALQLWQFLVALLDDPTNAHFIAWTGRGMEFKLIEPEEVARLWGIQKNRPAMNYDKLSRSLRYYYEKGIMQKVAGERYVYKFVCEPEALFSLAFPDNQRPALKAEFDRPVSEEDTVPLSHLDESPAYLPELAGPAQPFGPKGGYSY
# ERF = target: T4, ERF (UniProt P50548)
# T4 sequence: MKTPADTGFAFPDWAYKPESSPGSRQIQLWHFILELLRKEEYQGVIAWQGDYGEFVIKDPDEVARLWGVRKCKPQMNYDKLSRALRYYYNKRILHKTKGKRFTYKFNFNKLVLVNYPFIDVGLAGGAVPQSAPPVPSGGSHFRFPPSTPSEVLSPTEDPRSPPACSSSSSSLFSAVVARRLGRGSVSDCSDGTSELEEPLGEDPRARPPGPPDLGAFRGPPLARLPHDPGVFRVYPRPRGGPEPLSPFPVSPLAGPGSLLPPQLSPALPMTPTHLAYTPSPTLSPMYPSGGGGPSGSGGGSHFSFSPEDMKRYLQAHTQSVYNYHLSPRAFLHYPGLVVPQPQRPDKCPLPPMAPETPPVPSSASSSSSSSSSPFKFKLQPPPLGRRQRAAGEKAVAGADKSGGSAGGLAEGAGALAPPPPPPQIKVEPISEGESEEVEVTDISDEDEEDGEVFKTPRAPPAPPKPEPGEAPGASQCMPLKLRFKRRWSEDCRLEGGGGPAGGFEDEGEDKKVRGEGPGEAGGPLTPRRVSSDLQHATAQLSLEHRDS
# ETV1 = ETV1 (UniProt P50549)
Sequence,binding signal (ERG),binding signal (ELF1),binding signal (ELK4),binding signal (ETV4),binding signal (ERF),binding signal (ETV1)
ACCTTC,2.03,1.92,2.06,1.95,–,–
AGGTAA,0.92,0.953,0.992,0.928,1.06,–
TTACCA,1.11,1.13,1.04,1.01,–,–
AGATCT,0.932,1,0.848,0.967,–,–
AGCTCG,0.965,0.974,0.983,0.933,–,–
GGCTCG,1.02,1.05,1.11,1.06,0.987,–
GAATGT,–,–,1.07,1.06,–,1.03
TCCCAT,1.45,1.44,1.27,1.36,–,–
GCCGAT,1.03,1.03,1.13,1.09,–,–
GCACAC,0.965,1.02,0.882,1.02,–,–
TTGATC,–,–,1.14,1.28,–,1.15
TAGACA,0.918,0.991,1.11,0.987,0.994,–
TTCAGG,1.12,1.1,1.19,1.14,–,–
CGCCCA,–,–,1.04,1.02,–,0.938
CCACCG,–,–,0.992,1.11,–,0.994
CATACC,–,–,0.9,1.04,–,0.993
GCACGC,–,–,1.05,1.15,–,1.16
ACAGCA,–,–,1.02,1.06,–,0.979
CTTACA,–,–,1.3,1.25,–,1.24
AAGTGC,–,–,1.21,1.41,–,1.25
AGTGCA,–,–,0.991,1.09,–,1.11
GTCACT,–,–,1.07,1.1,–,0.992
GAAGTC,–,–,0.984,1.16,–,1.22
GGCACT,–,–,1.28,1.29,–,1.38
CACAGC,–,–,1.04,0.984,–,1.1
TACCTG,–,–,1.07,1.12,–,1.27
CTCGGG,–,–,0.999,1.08,–,1.03
AATTGA,–,–,1.18,1.15,–,1.21

Sequence,binding signal (ERG),binding signal (ELF1),binding signal (ELK4),binding signal (ETV4),binding signal (ERF),binding signal (ETV1)
ACTAGA,–,–,0.891,0.974,–,0.933
CGTACC,–,–,1.18,1.19,–,1.26
AGATTT,–,–,1.25,1.15,–,1.15
GAAATT,–,–,1.17,1.18,–,1.28
ATCACA,–,–,1.02,1.07,–,1.04
AGCCTA,–,–,1.17,1.07,–,1.12
GACTAC,–,–,1.18,1.13,–,1.17
CCGTAT,–,–,1.27,1.1,–,1.19
CTTTAT,–,–,1.29,1.26,–,1.22
GCAACC,–,–,0.939,1.12,–,1.02
GTCTTG,–,–,1.02,1.06,–,0.963
AAACCG,–,–,0.918,1.03,–,1.18
CCCAAG,–,–,0.898,0.868,–,0.846
GCTGGT,–,–,1.45,1.27,–,1.02
ATATCA,–,–,1.16,1.18,–,1.14
CGTCGC,–,–,0.985,1.08,–,1.3
CGTTGT,–,–,1.14,1.04,–,0.926
CAAGCA,–,–,1.14,1.07,–,1.1
TTCGGT,–,–,1.21,1.12,–,1.23
AGCGCC,–,–,1.11,1.09,–,0.957
TATGAC,–,–,1.45,1.39,–,1.26
CTATGC,–,–,1.38,1.55,–,1.55
CTACCT,–,–,1.36,1.33,–,1.54
TTGTAA,–,–,1.36,1.32,–,1.31
CTTTGG,–,–,1.02,1.16,1.19,1.17
AGGACC,–,1.06,0.931,1.08,0.949,0.966
TTGCGA,–,–,1.11,1.14,1.29,1.15
